Reference: PubChem BioAssay AID1487 (National Center for Advancing Translational Sciences (NCATS), 2009)
The other results are listed elsewhere or left out. Shown are side measurements of this screen, not its main read-out; they come without a call. Compounds called inactive in the main read-out are mostly missing here. Words in brackets tell the shape of the fitted curve; partial curves, single points and poor fits give uncertain potencies.

Assay: qHTS Assay for Modulators of Lamin A Splicing
Conditions: HeLa LMNA splicing GFP/RFP minigene ratio, 48 h
In short: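 S3 HeLa stable clones carrying a lamin A-EGFP splicing minigene plus DsRed2 were seeded at 600 cells/well in Opti-MEM with 2% FBS, pin-dosed and incubated 48 h at 37°C. Acumen cytometry (488 nm) gave the GFP/RFP total-intensity ratio.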

[1] = measured here: GFP splicing reporter channel
[2] = measured here: RFP viability control channel

Cc1cccc2c(=O)c(Br)c(C)n(Cc3ccccc3)c12
AC50 [1]: 0.316 µM [falling, partial curve]

COc1ccc(-n2ncc3c(N4CCN(c5cccc(C)c5)C(C)C4)ncnc32)cc1 (centres undefined)
AC50 [1]: 12.6 µM [falling, partial curve]
AC50 [2]: 35.5 µM [falling, single point]

CCOC(=O)CNc1c(-c2ccc(O)cc2)nc2ccc(Cl)cn12
AC50 [2]: 0.355 µM [rising, partial curve, poor fit]

CCn1c2ccccc2c2cc(NC(=O)c3cc(OC)c(OC)c(OC)c3)ccc21
AC50 [1]: 1.26 µM [falling, full curve]
AC50 [2]: 1.26 µM [falling, full curve]

Cc1ccc(CN=C(N)Nc2nc(C)cc(C)n2)cc1
AC50 [1]: 0.794 µM [falling, full curve]

O=C1C(=O)c2ccccc2C(O)=C1C1CCC(c2ccc(Cl)cc2)CC1 (centres undefined)
AC50 [1]: 4.47 µM [falling, partial curve]
AC50 [2]: 6.31 µM [rising, partial curve, poor fit]

Cc1c(C(=O)N2CCN(c3ccccc3)CC2)sc2ncnc(N3CCC(C)CC3)c12
AC50 [1]: 35.5 µM [rising, single point]
AC50 [2]: 35.5 µM [rising, single point]

Cc1ccc(SCc2cn3c(C)csc3n2)cc1
AC50 [1]: 31.6 µM [rising, single point]
AC50 [2]: 35.5 µM [rising, single point]

O=C(NCc1ccc2c(c1)OCO2)c1ccc(COc2cccc(Cl)c2)o1
AC50 [1]: 20 µM [rising, single point]
AC50 [2]: 35.5 µM [rising, single point]

Clc1ccc2nc(-c3ccc(Br)s3)cn2c1
AC50 [2]: 6.31 µM [rising, partial curve, poor fit]

COc1ccc(CN(C(=O)c2ccco2)c2ccc(C)cc2)cc1OC
AC50 [2]: 20 µM [rising, single point]

COc1ccccc1-n1c(=O)c(C#N)c(-c2ccc([N+](=O)[O-])cc2)c2cc(C(=O)c3cc(F)ccc3O)cnc21
AC50 [1]: 31.6 µM [falling, single point]
AC50 [2]: 35.5 µM [falling, single point]

Cc1ccccc1Cn1c(O)c(N=NC(=S)Nc2ccccc2F)c2ccccc21
AC50 [2]: 0.316 µM [rising, full curve, poor fit]

Cc1ccc(C2/C(=C(\O)c3cnn(-c4ccccc4)c3C)C(=O)C(=O)N2CCN(C)C)o1 (centres undefined)
AC50 [2]: 0.1 µM [falling, full curve]

COc1ccc(OC)c(S(=O)(=O)N2CCC(C(=O)Nc3cccc(C(F)(F)F)c3)CC2)c1
AC50 [2]: 31.6 µM [rising, single point]

CCOc1ccc(CC(=O)Nc2ccc3nc(N4CCCCC4)cc(C)c3c2)cc1OCC
AC50 [2]: 31.6 µM [rising, single point]

Cc1ccc(N/N=C/c2c(O)cc(C)oc2=O)cc1
AC50 [2]: 5.01 µM [falling, partial curve]

O=C(Cc1c[nH]c2ccccc12)NCc1ccc(Cl)cc1Cl
AC50 [1]: 10 µM [rising, single point]
AC50 [2]: 7.94 µM [rising, partial curve]

c1ccc(-c2nc(N3CCCCCC3)c3ccccc3n2)nc1
AC50 [1]: 11.2 µM [rising, partial curve, poor fit]
AC50 [2]: 10 µM [rising, partial curve]

O=c1oc2ccc(Br)cc2cc1S(=O)(=O)c1ccc(F)cc1
AC50 [1]: 35.5 µM [falling, single point]

O=[N+]([O-])c1ccc2nc(-c3ccc(Cl)cc3)[nH]c2c1
AC50 [1]: 10 µM [rising, partial curve, poor fit]
AC50 [2]: 22.4 µM [rising, single point]

O=C(/C=C/c1ccc(Br)cc1)N1CCN(c2cccc(C(F)(F)F)c2)CC1
AC50 [2]: 6.31 µM [rising, partial curve]

CN1C(=O)/C(=N\OC(=O)c2ccccc2Cl)c2ccccc21
AC50 [1]: 0.562 µM [rising, partial curve, poor fit]

CCOC(=O)c1c(NC(=O)CS(=O)(=O)c2cn(CC)c3ccccc23)sc2c1CCCC2
AC50 [1]: 3.55 µM [rising, full curve, poor fit]
AC50 [2]: 11.2 µM [rising, partial curve]

Cn1ccnc1Sc1nc(Nc2cccc(Cl)c2)nc(N2CCOCC2)n1
AC50 [2]: 31.6 µM [rising, single point]

O=C(CC1Sc2ncnn2C1=O)Nc1ccc(Br)cc1 (centres undefined)
AC50 [2]: 35.5 µM [rising, single point]

Cc1ccc(-c2nnn(CCC(=O)NC3CCCC3)n2)cc1
AC50 [1]: 11.2 µM [rising, partial curve]
AC50 [2]: 11.2 µM [rising, partial curve]

O=C(CNS(=O)(=O)c1ccc(C(=O)N2CCCCC2)cc1)N1CCCCC1
AC50 [2]: 0.708 µM [rising, full curve]

CCCS(=O)(=O)N1CCN=C1SCc1cccc(C)c1
AC50 [2]: 7.08 µM [falling, partial curve, poor fit]

COc1ccc(Cn2cccc(NC(=O)Nc3ccc(F)cc3)c2=O)cc1
AC50 [2]: 3.98 µM [falling, partial curve]

OC1CCN(C(=S)Nc2ccc(Nc3ccccc3)cc2)CC1
AC50 [2]: 0.282 µM [rising, full curve, poor fit]

CCN1/C(=C/C=C/C=C/c2sc3ccccc3[n+]2CC)Sc2ccccc21
AC50 [1]: 3.98 µM [rising, single point]
AC50 [2]: 4.47 µM [rising, full curve]

CC(/C=C/c1ccc(O)cc1)=N/O
AC50 [2]: 10 µM [rising, partial curve]

COc1ccc(Oc2ccccc2C=O)cc1
AC50 [1]: 35.5 µM [falling, single point]
AC50 [2]: 35.5 µM [falling, single point]

C/C(=C\C=C(C#N)C#N)c1cc(C#N)c(N)o1
AC50 [2]: 14.1 µM [rising, partial curve, poor fit]

O=C(Oc1cc2oc(=O)cc(-c3ccccc3)c2cc1Cl)C1CCCCC1
AC50 [1]: 10 µM [falling, partial curve, poor fit]
AC50 [2]: 7.94 µM [falling, partial curve, poor fit]

CCCCOc1cc(CC2CNC(=O)N2)ccc1OC (centres undefined)
AC50 [1]: 25.1 µM [rising, single point]
AC50 [2]: 22.4 µM [rising, single point]

O=C(CSc1nccc(=O)[nH]1)N1CCN(c2ccccc2)CC1
AC50 [1]: 7.08 µM [falling, full curve, poor fit]
AC50 [2]: 3.98 µM [falling, full curve, poor fit]

O=S(=O)(Nc1ccc2nc(C(F)(F)F)[nH]c2c1)c1ccccc1
AC50 [1]: 17.8 µM [rising, partial curve]
AC50 [2]: 15.8 µM [rising, partial curve]

O=C1C(=O)N2C(=C1C(=O)N1CCCCCC1)c1ccccc1CC21CCCC1
AC50 [1]: 22.4 µM [falling, single point]
AC50 [2]: 35.5 µM [falling, partial curve, poor fit]

CC1(c2ccc3noc(-c4ccc(Cl)cc4)c3c2)OCCO1
AC50 [1]: 14.1 µM [rising, single point]
AC50 [2]: 14.1 µM [rising, single point]

COc1ccc(NC(=O)CSc2nc3c([nH]c4ccccc43)c(=O)n2-c2ccccc2)c(OC)c1
AC50 [1]: 14.1 µM [falling, single point]
AC50 [2]: 31.6 µM [falling, single point]

CC1CCN(S(=O)(=O)c2cccc(C(=O)Nc3ccccn3)c2)CC1
AC50 [1]: 14.1 µM [rising, single point]
AC50 [2]: 22.4 µM [rising, single point]

COc1ccc(/C=N/NC(=O)c2cc(Br)ccc2O)cc1Cn1cc(Cl)cn1
AC50 [2]: 35.5 µM [rising, partial curve]

COc1ccc(N2CCN(C3CC(=O)N(Cc4ccccc4)C3=O)CC2)cc1 (centres undefined)
AC50 [1]: 12.6 µM [falling, partial curve, poor fit]
AC50 [2]: 0.158 µM [falling, full curve, poor fit]

O=C1[C@@H]2[C@@H]3C[C@@H]([C@H]4ON=C(c5ccc(Cl)cc5)[C@@H]34)[C@@H]2C(=O)N1C1CCCCC1
AC50 [1]: 17.8 µM [rising, single point]
AC50 [2]: 28.2 µM [rising, partial curve]

NC(=O)c1c(NC(=S)Nc2ccccc2)sc2c1CCCC2
AC50 [2]: 0.00316 µM [falling, full curve]

Cc1cc(S(=O)(=O)C(CNC(=O)c2ccc(OC(C)C)cc2)c2cccs2)ccc1F (centres undefined)
AC50 [1]: 17.8 µM [falling, partial curve, poor fit]

COc1cccc2c1ncc1c(-c3ccc(C)cc3)nn(-c3cccc([N+](=O)[O-])c3)c12
AC50 [2]: 1 µM [falling, full curve, poor fit]

O=C(Nc1ccc2c(c1)OCO2)c1ccc(N2CCCC2)c([N+](=O)[O-])c1
AC50 [1]: 31.6 µM [rising, single point]
AC50 [2]: 35.5 µM [rising, single point]

COC(=O)c1c(NC(=O)COc2ncnc3ccccc23)sc(C)c1C
AC50 [2]: 35.5 µM [rising, single point]

Cc1ccccc1Cn1ccc(NC(=O)c2nn(C)cc2[N+](=O)[O-])n1
AC50 [1]: 15.8 µM [falling, single point]

COc1cc2c(cc1NC(=O)c1ccc3c(c1)OCO3)oc1ccccc12
AC50 [1]: 12.6 µM [rising, single point]
AC50 [2]: 11.2 µM [rising, single point]
